{"source": "patent US20050079180A1", "about": "“Manipulatin of oocyte maturation and male germ cell survival” (priority 2003, published 2005)", "tested_on": "seminiferous tubular cells", "test": "cAMP production by seminiferous tubular cells", "format": "cell-based, rat", "conditions": "agent alone; FIG. 2D", "note": "At least one compound was matched to its structure with a doubt left."}
{"smiles": "C=C[C@@]1(C)CC(=O)[C@]2(O)[C@@]3(C)[C@@H](O)CCC(C)(C)[C@@H]3[C@H](O)[C@H](OC(C)=O)[C@@]2(C)O1", "note": "[forskolin, reference compound]", "values": [{"measurement": "cAMP production", "value": "cAMP increases induced by forskolin"}]}
